These are yes or no findings as the source states them, for the method shown. For some assays here: Binding seen in cells or lysates may run through a third protein. Some results given as binding are weak or reduced against the parent protein; the word gives no strength. For some assays here: Tags and fused reporters may be left off the sequences shown.

The target of experiment [1] is T1, human syndecan-1 (human, UniProt P18827 23-310).
T1 construct: also called mammalian syndecan-1; CD138
T1 sequence (looked up): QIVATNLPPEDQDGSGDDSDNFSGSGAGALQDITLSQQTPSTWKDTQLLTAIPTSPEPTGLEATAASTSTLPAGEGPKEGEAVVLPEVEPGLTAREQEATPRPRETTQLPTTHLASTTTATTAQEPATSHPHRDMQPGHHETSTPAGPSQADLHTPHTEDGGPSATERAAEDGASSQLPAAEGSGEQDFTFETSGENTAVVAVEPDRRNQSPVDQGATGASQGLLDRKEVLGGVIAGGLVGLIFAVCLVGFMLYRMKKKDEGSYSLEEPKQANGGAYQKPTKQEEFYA
Put plainly: pull-down with intein-tagged deletion mutant.

For experiment [2], the target named is T1, human syndecan-1. Put plainly: competitive binding assay, soluble competitor against lacritin binding to syndecan-1.

B1: intein-tagged lacritin deletion mutant N-24 (ligand, not shown: small tags and cut ends)
chain: ISGPAEPASPPETTTTAQETSAAAVQGTAKVTSSRQELNPLKSIVEKSILLTEQALAKAGKGMHGGVPGGKQFIENGSEFAQKLLKKFSLLKPWA
Turning to B1, the binding result with human syndecan-1 [1] is given as “binds”.

B2: lacritin deletion mutant N-24 (soluble) (ligand)
chain: ISGPAEPASPPETTTTAQETSAAAVQGTAKVTSSRQELNPLKSIVEKSILLTEQALAKAGKGMHGGVPGGKQFIENGSEFAQKLLKKFSLLKPWA
Regarding B2, the binding result with human syndecan-1 [2] was “binds”.
